Results are given in words; binding and its absence hold for the method and conditions named. Binding seen in cells or lysates may run through a third protein. Some entries that bind do so weakly or less than the wild type.

Chains of the proteins cited; added tags and fusions are not shown.
UniProt P40763: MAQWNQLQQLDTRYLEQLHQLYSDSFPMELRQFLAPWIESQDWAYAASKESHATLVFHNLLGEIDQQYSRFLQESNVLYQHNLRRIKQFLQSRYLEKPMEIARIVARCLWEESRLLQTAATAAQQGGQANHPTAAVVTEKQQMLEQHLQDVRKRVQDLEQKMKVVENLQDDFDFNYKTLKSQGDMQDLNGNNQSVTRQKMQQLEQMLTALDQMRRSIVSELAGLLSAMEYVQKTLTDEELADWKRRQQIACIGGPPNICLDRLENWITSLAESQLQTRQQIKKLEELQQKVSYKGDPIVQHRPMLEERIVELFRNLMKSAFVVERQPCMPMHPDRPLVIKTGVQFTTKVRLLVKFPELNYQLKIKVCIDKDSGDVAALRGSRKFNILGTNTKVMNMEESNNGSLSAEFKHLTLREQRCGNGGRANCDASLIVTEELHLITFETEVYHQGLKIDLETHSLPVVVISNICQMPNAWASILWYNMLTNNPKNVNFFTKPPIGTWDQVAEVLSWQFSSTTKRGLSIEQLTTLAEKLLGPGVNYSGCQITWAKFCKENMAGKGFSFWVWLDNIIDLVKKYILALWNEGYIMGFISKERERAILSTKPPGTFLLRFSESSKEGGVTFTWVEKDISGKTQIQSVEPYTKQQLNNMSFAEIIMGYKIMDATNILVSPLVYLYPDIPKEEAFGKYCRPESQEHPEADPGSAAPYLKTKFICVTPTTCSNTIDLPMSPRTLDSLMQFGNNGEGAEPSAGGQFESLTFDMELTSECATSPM

The target of the assay is STAT3, NanoLuc or HaloTag fusion (UniProt P40763). As to the kind of experiment: FRET or BRET; NanoBRET in intact HEK293T cells co-transfected with NanoLuc and HaloTag fusions of DYRK1B and STAT3; HaloTag NanoBRET 618 Ligand; 37 °C/5% CO2; 450 nm donor and 610 nm acceptor filters.

As to “dual-specificity regulated kinase 1B (DYRK1B), NanoLuc or HaloTag fusion (from UniProt Q9Y463-1 1-629) (enzyme)”, the binding result is “binds”.

These data come from article PMC11846820, “Inhibition of DYRK1B BY C81 impedes inflammatory processes in leukocytes by reducing STAT3 activity” (Cellular and Molecular Life Sciences: CMLS, 2025).
